In article PMC5180163:
These are yes or no findings as the source states them, for the method shown. Binding seen in cells or lysates may run through a third protein. Binding calls can cover weak binding; strength is not graded here.

B1: Endogenous PATJ of Drosophila embryos (protein, UniProt Q9NB04 1-871)
chain: MHLSADISSALQQIEAVKKGIDESDDPKLQMQTAESLSTILGILQDPVFRTIVHVQDSLSELNAQLAQHPSMLPNDFDIDVAGNLVLSLNGGEVMYDFDEQRSSSHSHSAPGSPDKSGGVGEEPRPQSQNSKGAGVADLYATDYAQIQAIELVNDGTGLGFGIIGARNSGVIVKTILPGGVADKDGRLRSGDHILQIGDVNLHEMVSEQVAAVLRQSGTHVRLVVARPVEQSVPTPQYALEPGTAVVPTRVLVDPAELERYLISTGYPEIFGESSTASTPQTTTEDDRFVYRGETSMLIDPNIDLEELLALPETEKLQVELKKDANGLGITIAGYVCEKEELSGIFVKSVSPGSAADLSGRIRVNDRIIEVDGQSLQGYSNHQAVELLKKSGQVVNLRLERYLRGPKFEQLQQAIAANDKLPSSAPGTPSRAPMPTPVATTSSATTTPSRSITRELEEEALPAPEAFMTTPPSVTTMTTTTLSSFGAGKQLVAVRDSLDGSTKIIPTEVVPLADKTEAKNSGVITRHKYYTDPELSDDAETEIIRKWQKIVGSDVEVIVAQIKKFAVGGLGISLEGTVDVEGGREVRPHHYIRSILPDGPVGVNGVLRSGDELLEVNGERLLGMNHLEVVAILKELPLDVRMVCGRNRNSSLLPFSDDTLKKLSNNFENLLPATDRLVKAKSDGSLATAGSVADGDSVAAAAASFSKLKSRSLEPLTGLAMWSSQPQIIELVKGDRGLGFSILDYQDPLDPNDTLIVIRSLVPGGVAQLDGRLIPGDRLLFVNSINLENASLDQAVQALKGASKGVVRIGVAKPLPMTDNSLKACSNASTTSEETLDAQPSPPALPTVAPPAMPPSASMGAEPDLIPDWRN
B2: Endogenous aPKC (atypical protein kinase C) of Drosophila embryos (enzyme, UniProt A1Z9X0 1-606)
chain: MQKMPSQILNDGSSVSLNSASMNMANTPNSITVKTAYNGQIIITTINKNISYEELCYEIRNICRFPLDQPFTIKWVDEENDPCTISTKMELDEAIRLYEMNFDSQLVIHVFPNVPQAPGLSCDGEDRSIYRRGARRWRKLYRVNGHIFQAKRFNRRAFCAYCQDRIWGLGRQGFKCIQCKLLVHKKCHKLVQKHCTDQPEPLVKERAEESSDPIPVPLPPLPYEAMSGGAEACETHDHAHIVAPPPPEDPLEPGTQRQYSLNDFELIRVIGRGSYAKVLMVELRRTRRIYAMKVIKKALVTDDEDIDWVQTEKHVFETASNHPFLVGLHSCFQTPSRLFFVIEFVRGGDLMYHMQRQRRLPEEHARFYAAEISLALNFLHEKGIIYRDLKLDNVLLDHEGHIKLTDYGMCKEGIRPGDTTSTFCGTPNYIAPEILRGEDYGFSVDWWALGVLLYEMLAGRSPFDLAGASENPDQNTEDYLFQVILEKTIRIPRSLSVRAASVLKGFLNKNPADRLGCHRESAFMDIVSHPFFKNMDWELLERKQVTPPFKPRLDSDRDLANFPPEFTGEAVQLTPDDDHVIDNIDQSEFEGFEYVNPLLMSLEDCV
B3: Endogenous PAR-6 of Drosophila embryos (protein, UniProt O97111 1-351)
chain: MSKNKINTTSATAASDTNLIEVKSKFDAEFRRWSFKRNEAEQSFDKFASLIEQLHKLTNIQFLILYIDPRDNDLLPINNDDNFGRALKTARPLLRVIVQRKDDLNEYSGFGTMKPRNLIGSILMGHTPVKTKAPSISIPHDFRQVSAIIDVDIVPETHRRVRLLKHGSDKPLGFYIRDGTSVRVTASGLEKQPGIFISRLVPGGLAESTGLLAVNDEVIEVNGIEVAGKTLDQVTDMMVANSSNLIITVKPANQRTLTSTHRGSFSRNSQLSSGSHHTNNTNTSDEIEHDDQDDIVDLTGVTLDESPTSTSAGNHNHQPPLSSSPSSHHQQAASNASTIMASDVKDGVLHL

What was measured:
[1] = target: Sdt-GFP (Ubi::Sdt-GFP), expressed in Drosophila embryos (Drosophila); test: co-IP; lysate of embryos expressing GFP-tagged Sdt variants (Ubi::Sdt-GFP); IP with rabbit anti GFP, protein A/G agarose; bound endogenous proteins by western blot
[2] = target: SdtΔPDZ-GFP, expressed in Drosophila embryos (Drosophila); test: as above
[3] = target: SdtΔSH3-GFP, expressed in Drosophila embryos (Drosophila); test: as above
[4] = target: Endogenous Stardust (Sdt) of Drosophila embryos (Drosophila (endogenous in embryos)); test: co-IP; lysate of w- embryos (1% Triton X-100, 150 mM NaCl, 1 mM CaCl2, 1 mM MgCl2, 50 mM Tris-HCl pH 7.5); IP with mouse anti Sdt, control IP with anti β-galactosidase; protein A/G agarose, western blot

Binder	binding [1]	binding [2]	binding [3]	binding [4]
B1	binds	binds	binds	binds
B2				binds
B3				no binding
